The values that follow come from publication PMC8559680.

These are yes or no findings as the source states them, for the method shown. For part of these data: In cells and extracts the contact can be indirect. Some results given as binding are weak or reduced against the parent protein; the word gives no strength. For part of these data: Where a sequence is shown, tags or fusion partners need not be part of it.

Experiment [1] has as its target T1, Pfs2-3C-SII (yeast) (UniProt P42841).
T1 sequence: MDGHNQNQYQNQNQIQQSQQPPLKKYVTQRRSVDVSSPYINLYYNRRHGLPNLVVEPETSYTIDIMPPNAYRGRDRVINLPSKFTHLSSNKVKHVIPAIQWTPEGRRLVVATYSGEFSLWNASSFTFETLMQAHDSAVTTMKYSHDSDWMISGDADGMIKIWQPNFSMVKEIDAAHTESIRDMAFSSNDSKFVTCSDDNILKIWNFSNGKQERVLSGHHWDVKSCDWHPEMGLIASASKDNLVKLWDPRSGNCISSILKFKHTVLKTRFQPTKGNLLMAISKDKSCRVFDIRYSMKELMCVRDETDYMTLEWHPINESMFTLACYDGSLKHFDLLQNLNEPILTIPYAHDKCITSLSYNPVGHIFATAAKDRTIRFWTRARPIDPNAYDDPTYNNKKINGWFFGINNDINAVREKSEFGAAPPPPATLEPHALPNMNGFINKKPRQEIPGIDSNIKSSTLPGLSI
Put plainly: pull-down; StrepII (SII) tag on Pfs2 as bait; polymerase module subunits co-expressed in Sf9 cells; clarified lysate on Streptactin resin, 4°C; eluate analysed by SDS-PAGE.

The target in experiment [2] is T2, Ref2-3C-SII (yeast) (UniProt P42073).
T2 sequence: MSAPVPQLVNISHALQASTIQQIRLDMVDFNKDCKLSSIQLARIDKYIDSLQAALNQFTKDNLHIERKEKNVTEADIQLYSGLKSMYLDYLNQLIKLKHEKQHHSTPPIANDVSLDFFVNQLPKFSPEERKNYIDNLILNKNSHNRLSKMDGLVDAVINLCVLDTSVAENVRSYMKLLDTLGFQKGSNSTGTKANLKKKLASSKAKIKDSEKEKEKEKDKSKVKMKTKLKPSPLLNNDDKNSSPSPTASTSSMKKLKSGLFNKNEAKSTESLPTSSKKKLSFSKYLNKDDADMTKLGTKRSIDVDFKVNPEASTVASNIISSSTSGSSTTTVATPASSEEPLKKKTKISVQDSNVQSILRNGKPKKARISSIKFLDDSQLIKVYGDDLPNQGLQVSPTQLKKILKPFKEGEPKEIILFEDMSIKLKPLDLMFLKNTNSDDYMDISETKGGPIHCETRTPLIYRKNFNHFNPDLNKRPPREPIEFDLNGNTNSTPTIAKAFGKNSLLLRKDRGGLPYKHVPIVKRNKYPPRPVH
In words: co-purification (StrepTactin affinity, anion exchange, size exclusion); StrepII tag on Ref2 as bait; Sf9 cells co-infected with two baculoviruses (nuclease and polymerase modules; phosphatase module); purified complex analysed by SDS-PAGE. (In general: SEC sorts molecules by how far they enter the pores of the column.)

Experiment [3] has as its target T3, Yth1 (untagged) (yeast) (UniProt Q06102).
T3 sequence: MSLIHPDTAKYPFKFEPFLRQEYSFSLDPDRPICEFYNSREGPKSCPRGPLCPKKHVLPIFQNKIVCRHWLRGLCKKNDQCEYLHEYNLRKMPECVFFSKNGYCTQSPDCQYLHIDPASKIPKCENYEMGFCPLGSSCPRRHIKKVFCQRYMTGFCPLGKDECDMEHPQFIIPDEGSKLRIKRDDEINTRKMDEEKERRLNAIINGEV
Put plainly: co-purification (protocol of the wild-type polymerase module); Sf9 cells co-infected with the virus of a Fip1 central LCR variant and the virus of the Cft1, Pfs2-SII and Yth1 complex; four-protein polymerase module purified.

Experiment [4] concerns the target T4, 8His-3C-Yth1 (yeast) (UniProt Q06102).
T4 sequence: T3 sequence
Put plainly: pull-down; StrepII (SII) tag on Pfs2 as bait; polymerase module subunits co-expressed in Sf9 cells; clarified lysate on Streptactin resin, 4°C; eluate analysed by SDS-PAGE.

The target in experiment [5] is T3, Yth1 (untagged) (yeast). Described as above.

B1: Cft1 (protein, UniProt Q06632 1-1357)
chain: MNVYDDVLDATVVSHSLATHFTTSDYEELLVVRTNILSVYRPTRDGKLYLTDEFKFHGLITDIGLIPQKDSPLSCLLLCTGVAKISILKFNTLTNSIDTLSLHYYEGKFKGKSLVELAKISTLRMDPGSSCALLFNNDIIAFLPFHVNKNDDDEEEEDEDENIDDSELIHSMNQKSQGTNTFNKRKRTKLGDKFTAPSVVLVASELYEGAKNIIDIQFLKNFTKPTIALLYQPKLVWAGNTTISKLPTQYVILTLNIQPAESATKIESTTIAFVKELPWDLHTIVPVSNGAIIVGTNELAFLDNTGVLQSTVLLNSFADKELQKTKIINNSSLEIMFREKNTTSIWIPSSKSKNGGSNNDETLLLMDLKSNIYYIQMEAEGRLLIKFDIFKLPIVNDLLKENSNPKCITRLNATNSNKNMDLFIGFGSGNALVLRLNNLKSTIETREAHNPSSGTNSLMDINDDDDEEMDDLYADEAPENGLTTNDSKGTVETVQPFDIELLSSLRNVGPITSLTVGKVSSIDDVVKGLPNPNKNEYSLVATSGNGSGSHLTVIQTSVQPEIELALKFISITQIWNLKIKGRDRYLITTDSTKSRSDIYESDNNFKLHKGGRLRRDATTVYISMFGEEKRIIQVTTNHLYLYDTHFRRLTTIKFDYEVIHVSVMDPYILVTVSRGDIKIFELEEKNKRKLLKVDLPEILNEMVITSGLILKSNMCNEFLIGLSKSQEEQLLFTFVTADNQIIFFTKDHNDRIFQLNGVDQLNESLYISTYQLGDEIVPDPSIKQVMINKLGHDNKEEYLTILTFGGEIYQYRKLPQRRSRFYRNVTRNDLAITGAPDNAYAKGVSSIERIMHYFPDYNGYSVIFVTGSVPYILIKEDDSTPKIFKFGNIPLVSVTPWSERSVMCVDDIKNARVYTLTTDNMYYGNKLPLKQIKISNVLDDYKTLQKLVYHERAQLFLVSYCKRVPYEALGEDGEKVIGYDENVPHAEGFQSGILLINPKSWKVIDKIDFPKNSVVNEMRSSMIQINSKTKRKREYIIAGVANATTEDTPPTGAFHIYDVIEVVPEPGKPDTNYKLKEIFQEEVSGTVSTVCEVSGRFMISQSQKVLVRDIQEDNSVIPVAFLDIPVFVTDSKSFGNLLIIGDAMQGFQFIGFDAEPYRMISLGRSMSKFQTMSLEFLVNGGDMYFAATDADRNVHVLKYAPDEPNSLSGQRLVHCSSFTLHSTNSCMMLLPRNEEFGSPQVPSFQNVGGQVDGSVFKIVPLSEEKYRRLYVIQQQIIDRELQLGGLNPRMERLANDFYQMGHSMRPMLDFNVIRRFCGLAIDRRKSIAQKAGRHAHFEAWRDIINIEFSMRSLCQGK
B1: the binding entry in experiment [1] and in experiment [2] was “binds” throughout.

B2: Fip1_(scramble) (protein, UniProt P45976 1-109; P45976 171-327)
chain: MSSSEDEDDKFLYGSDSELALPSSKRSRDDEADAGASSNPDIVKRQKFDSPVEETPATARDDRSDEDIYSDSSDDDSDSDLEVIISLGPDPTRLDAKLLDSYSTAATSSNTTDALSGAIGNPIMRTAVSTTVVDESTGLADGEVTKESDDKDIVIGTQKSTVEAKSKENTIFDSVGITTIDPEVLKEKPWRQPGANLSDYFNYGFNEFTWMEYLHRQEKLQQDYNPRRILMGLLSLQQQGKLNSANDTDSNLGNIIDNNNNVNNANMSNLNSNMGNSMSGTPNPPAPPMHPSFPPLPMFGSFPPFPMPGMMPPMNQQPNQNQNQNSK
With B2, the binding result in experiment [3] is listed as “binds”.

B3: Fip1 (protein, UniProt P45976 1-327)
chain: MSSSEDEDDKFLYGSDSELALPSSKRSRDDEADAGASSNPDIVKRQKFDSPVEETPATARDDRSDEDIYSDSSDDDSDSDLEVIISLGPDPTRLDAKLLDSYSTAATSSSKDVISVATDVSNTITKTSDERLITEGEANQGVTATTVKATESDGNVPKAMTGSIDLDKEGIFDSVGITTIDPEVLKEKPWRQPGANLSDYFNYGFNEFTWMEYLHRQEKLQQDYNPRRILMGLLSLQQQGKLNSANDTDSNLGNIIDNNNNVNNANMSNLNSNMGNSMSGTPNPPAPPMHPSFPPLPMFGSFPPFPMPGMMPPMNQQPNQNQNQNSK
On to B3, for which the binding entry in experiment [4] and in experiment [2] was “binds” throughout.

B4: 8His-3C-Yth1 (protein, UniProt Q06102 1-208)
chain: T3 sequence
Regarding B4, in experiment [1], the binding entry is “binds”.

B5: Fip1_(Δ110–180) (protein, UniProt P45976)
chain: MSSSEDEDDKFLYGSDSELALPSSKRSRDDEADAGASSNPDIVKRQKFDSPVEETPATARDDRSDEDIYSDSSDDDSDSDLEVIISLGPDPTRLDAKLLDSYSTAATSSDPEVLKEKPWRQPGANLSDYFNYGFNEFTWMEYLHRQEKLQQDYNPRRILMGLLSLQQQGKLNSANDTDSNLGNIIDNNNNVNNANMSNLNSNMGNSMSGTPNPPAPPMHPSFPPLPMFGSFPPFPMPGMMPPMNQQPNQNQNQNSK
As for B5, the binding result in experiment [5] and in experiment [2] was “binds” in each case.

B6: Fip1_(Puf3) (protein, UniProt P45976 1-109; P45976 171-327)
chain: MSSSEDEDDKFLYGSDSELALPSSKRSRDDEADAGASSNPDIVKRQKFDSPVEETPATARDDRSDEDIYSDSSDDDSDSDLEVIISLGPDPTRLDAKLLDSYSTAATSSTAVNSNPNASESISGNSAFNFPSAPVSSLDTNNYGQRRPSLLSGTSPTSSFFNSSMISSNYIFDSVGITTIDPEVLKEKPWRQPGANLSDYFNYGFNEFTWMEYLHRQEKLQQDYNPRRILMGLLSLQQQGKLNSANDTDSNLGNIIDNNNNVNNANMSNLNSNMGNSMSGTPNPPAPPMHPSFPPLPMFGSFPPFPMPGMMPPMNQQPNQNQNQNSK
As for B6, the binding entry in experiment [3] was “binds”.
